Results on three substances are retold here after PMC10247384.

Amino acid sequences for entries named in this document (tags omitted).
UniProt Q9H6L5: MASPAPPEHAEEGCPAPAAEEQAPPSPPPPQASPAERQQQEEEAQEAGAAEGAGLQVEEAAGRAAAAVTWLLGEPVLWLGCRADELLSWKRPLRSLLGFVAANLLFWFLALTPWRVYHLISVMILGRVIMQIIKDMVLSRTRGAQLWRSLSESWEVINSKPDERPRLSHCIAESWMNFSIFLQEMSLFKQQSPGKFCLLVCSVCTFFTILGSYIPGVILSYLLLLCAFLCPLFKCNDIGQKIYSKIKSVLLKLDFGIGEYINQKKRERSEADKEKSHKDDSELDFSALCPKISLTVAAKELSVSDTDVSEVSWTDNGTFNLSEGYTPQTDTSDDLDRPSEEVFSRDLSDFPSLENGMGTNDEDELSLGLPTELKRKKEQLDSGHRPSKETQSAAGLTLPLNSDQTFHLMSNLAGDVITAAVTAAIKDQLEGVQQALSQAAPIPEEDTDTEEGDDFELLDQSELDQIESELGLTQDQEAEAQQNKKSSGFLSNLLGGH

For experiment [1], the target named is FAM134B N-terminally tagged with the V1 or V2 fragment of the Venus protein (UniProt Q9H6L5). The experiment can be described thus: affinity purification with mass spectrometry; BiCAP: HEK293T cells transiently transfected with V1- and V2-tagged constructs; lysis in 1% Triton X-100 IP buffer, diluted to 0.3%; GFP-Trap beads overnight at 4 °C; label-free LC–MS.

In experiment [2] the target is HA–FAM134B (UniProt Q9H6L5). The experiment is described as follows: affinity purification with mass spectrometry; HA–FAM134B induced with doxycycline in U2OS cells; lysis in 1% Triton X-100 IP buffer, diluted to 0.3%; HA-agarose beads overnight at 4 °C; LC–MS.

These are yes or no findings as the source states them, for the method shown. In cells and extracts the contact can be indirect. A yes stands for co-enrichment or nearness to the bait. Other partners may have been found.

“ARL6IP1 N-terminally tagged with the V1 or V2 fragment of the Venus protein (from UniProt Q15041 1-203)”: the binding entry in experiment [1] is “binds”.

Consider “FAM134B N-terminally tagged with the V1 or V2 fragment of the Venus protein (from UniProt Q9H6L5 1-497)”, for which the binding entry in experiment [1] was “binds”.

With “endogenous ARL6IP1 (human cells) (from UniProt Q15041-1 1-203)”, the binding result in experiment [2] was “binds”.
